# Measurements: the supplement of paper PMC12823440, “Inhibitors supercharge kinase turnover through native proteolytic circuits” (Nature, 2025)
# The chains behind the UniProt entries cited, without tags or fusion partners. Where a name states a change or a piece, a line headed by the entry shows the natural chain unless it says otherwise.
# UniProt P06239: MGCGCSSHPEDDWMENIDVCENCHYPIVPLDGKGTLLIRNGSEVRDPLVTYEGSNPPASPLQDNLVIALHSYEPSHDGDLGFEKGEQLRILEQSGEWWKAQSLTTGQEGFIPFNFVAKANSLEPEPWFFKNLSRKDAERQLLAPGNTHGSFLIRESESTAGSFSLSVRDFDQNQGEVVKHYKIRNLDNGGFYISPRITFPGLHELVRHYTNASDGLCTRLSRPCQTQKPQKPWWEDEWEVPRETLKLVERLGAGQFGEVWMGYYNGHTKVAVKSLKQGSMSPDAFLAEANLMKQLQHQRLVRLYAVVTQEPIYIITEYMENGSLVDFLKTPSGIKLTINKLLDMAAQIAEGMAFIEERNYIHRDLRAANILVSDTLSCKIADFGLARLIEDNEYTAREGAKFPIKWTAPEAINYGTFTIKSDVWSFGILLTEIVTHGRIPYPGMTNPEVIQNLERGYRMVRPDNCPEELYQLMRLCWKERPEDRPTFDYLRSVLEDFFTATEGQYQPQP
# UniProt P53671: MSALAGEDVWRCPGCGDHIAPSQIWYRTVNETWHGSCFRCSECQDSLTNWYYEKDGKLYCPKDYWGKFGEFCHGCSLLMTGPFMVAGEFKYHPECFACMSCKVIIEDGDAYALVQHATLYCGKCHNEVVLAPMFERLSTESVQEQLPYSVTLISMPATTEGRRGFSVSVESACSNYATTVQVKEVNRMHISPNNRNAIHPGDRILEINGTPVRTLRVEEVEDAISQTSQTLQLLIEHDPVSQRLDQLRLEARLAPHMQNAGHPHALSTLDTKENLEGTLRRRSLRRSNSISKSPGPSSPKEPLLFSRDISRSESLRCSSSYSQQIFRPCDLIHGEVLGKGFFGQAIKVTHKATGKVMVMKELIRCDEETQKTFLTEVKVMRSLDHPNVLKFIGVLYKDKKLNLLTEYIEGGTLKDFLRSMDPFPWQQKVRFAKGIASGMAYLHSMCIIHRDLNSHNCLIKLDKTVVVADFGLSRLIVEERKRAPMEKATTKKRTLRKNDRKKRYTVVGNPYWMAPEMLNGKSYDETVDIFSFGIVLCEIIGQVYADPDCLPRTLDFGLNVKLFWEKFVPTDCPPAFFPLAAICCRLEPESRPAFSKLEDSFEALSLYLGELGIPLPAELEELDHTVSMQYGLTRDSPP
# UniProt P07948: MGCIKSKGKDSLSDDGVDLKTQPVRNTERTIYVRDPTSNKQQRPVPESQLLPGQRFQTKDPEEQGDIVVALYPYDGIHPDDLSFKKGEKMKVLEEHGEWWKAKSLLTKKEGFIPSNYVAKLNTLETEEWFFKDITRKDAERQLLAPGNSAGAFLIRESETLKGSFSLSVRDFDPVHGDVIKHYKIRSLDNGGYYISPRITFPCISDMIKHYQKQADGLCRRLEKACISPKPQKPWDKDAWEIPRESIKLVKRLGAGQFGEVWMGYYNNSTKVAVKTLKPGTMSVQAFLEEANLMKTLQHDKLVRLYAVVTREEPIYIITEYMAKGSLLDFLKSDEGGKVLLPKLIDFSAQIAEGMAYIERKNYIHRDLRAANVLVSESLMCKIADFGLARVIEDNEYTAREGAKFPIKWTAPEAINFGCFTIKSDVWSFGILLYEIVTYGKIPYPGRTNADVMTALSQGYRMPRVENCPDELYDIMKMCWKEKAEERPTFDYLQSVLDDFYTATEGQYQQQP
# UniProt P28482, whole entry: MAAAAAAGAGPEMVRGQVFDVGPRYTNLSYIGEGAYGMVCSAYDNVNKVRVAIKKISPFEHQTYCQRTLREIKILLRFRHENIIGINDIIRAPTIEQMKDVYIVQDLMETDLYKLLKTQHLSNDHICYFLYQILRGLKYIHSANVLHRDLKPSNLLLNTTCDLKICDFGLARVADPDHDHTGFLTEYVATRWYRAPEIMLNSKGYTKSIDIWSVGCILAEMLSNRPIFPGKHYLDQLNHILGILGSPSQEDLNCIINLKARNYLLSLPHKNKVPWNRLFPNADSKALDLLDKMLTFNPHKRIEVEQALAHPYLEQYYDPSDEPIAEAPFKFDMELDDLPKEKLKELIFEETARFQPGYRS
# UniProt Q9BUB5: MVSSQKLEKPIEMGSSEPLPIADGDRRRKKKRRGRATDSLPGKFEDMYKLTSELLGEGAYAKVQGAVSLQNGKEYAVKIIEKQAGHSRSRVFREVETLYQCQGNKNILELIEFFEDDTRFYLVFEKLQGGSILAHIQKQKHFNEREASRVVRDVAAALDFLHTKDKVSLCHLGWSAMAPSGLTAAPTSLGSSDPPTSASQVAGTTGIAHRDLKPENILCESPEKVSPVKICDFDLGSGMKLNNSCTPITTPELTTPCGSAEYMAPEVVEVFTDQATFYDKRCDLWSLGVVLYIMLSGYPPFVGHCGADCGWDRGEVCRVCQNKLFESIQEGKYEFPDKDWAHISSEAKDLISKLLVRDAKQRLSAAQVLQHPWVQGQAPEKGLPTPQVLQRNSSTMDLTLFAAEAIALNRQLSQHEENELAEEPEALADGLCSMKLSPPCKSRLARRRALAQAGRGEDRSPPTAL
# UniProt Q16620, whole entry, looked up: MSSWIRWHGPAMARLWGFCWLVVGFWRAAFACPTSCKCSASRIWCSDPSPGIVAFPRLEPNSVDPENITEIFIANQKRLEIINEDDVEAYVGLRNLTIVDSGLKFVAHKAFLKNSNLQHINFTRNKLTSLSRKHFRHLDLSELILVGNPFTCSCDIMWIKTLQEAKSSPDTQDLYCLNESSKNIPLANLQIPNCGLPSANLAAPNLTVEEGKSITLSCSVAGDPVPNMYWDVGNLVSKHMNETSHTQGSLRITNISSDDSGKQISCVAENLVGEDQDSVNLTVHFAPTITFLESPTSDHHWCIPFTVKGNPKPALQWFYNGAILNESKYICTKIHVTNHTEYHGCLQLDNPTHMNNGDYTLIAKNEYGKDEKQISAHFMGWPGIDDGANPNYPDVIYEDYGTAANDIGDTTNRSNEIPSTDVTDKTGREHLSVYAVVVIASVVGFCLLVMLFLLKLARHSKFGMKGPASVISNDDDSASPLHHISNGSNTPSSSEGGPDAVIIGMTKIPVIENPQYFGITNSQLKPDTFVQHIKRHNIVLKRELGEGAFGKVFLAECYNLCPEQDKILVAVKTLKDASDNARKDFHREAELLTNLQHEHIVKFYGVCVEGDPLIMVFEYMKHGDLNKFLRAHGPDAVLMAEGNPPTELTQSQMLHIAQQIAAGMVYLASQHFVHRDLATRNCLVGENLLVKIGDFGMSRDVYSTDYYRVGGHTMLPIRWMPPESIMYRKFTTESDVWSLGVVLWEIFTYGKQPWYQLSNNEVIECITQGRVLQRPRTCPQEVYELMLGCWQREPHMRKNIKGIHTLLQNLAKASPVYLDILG
# UniProt Q16288, whole entry, looked up: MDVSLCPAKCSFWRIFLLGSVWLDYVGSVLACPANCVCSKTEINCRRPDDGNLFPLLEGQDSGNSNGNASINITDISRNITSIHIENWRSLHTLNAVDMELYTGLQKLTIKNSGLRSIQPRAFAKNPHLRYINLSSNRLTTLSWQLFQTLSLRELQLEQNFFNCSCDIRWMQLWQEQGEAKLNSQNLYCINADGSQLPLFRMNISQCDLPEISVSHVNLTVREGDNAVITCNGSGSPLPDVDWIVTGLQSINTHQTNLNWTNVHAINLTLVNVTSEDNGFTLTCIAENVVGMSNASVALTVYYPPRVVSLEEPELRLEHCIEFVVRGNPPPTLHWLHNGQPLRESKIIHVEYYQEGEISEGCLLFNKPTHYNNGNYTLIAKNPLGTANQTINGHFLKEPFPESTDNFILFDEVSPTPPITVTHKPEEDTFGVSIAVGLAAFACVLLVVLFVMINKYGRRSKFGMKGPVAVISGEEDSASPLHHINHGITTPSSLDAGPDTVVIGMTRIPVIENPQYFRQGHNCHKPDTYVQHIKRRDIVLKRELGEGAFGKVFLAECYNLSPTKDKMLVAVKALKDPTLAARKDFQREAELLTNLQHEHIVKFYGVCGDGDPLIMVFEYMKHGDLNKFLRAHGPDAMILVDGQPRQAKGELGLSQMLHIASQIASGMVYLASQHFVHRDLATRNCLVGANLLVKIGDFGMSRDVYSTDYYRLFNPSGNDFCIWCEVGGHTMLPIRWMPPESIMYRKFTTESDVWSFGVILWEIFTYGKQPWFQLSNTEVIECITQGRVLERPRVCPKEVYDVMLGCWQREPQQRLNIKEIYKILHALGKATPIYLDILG
# UniProt O96013: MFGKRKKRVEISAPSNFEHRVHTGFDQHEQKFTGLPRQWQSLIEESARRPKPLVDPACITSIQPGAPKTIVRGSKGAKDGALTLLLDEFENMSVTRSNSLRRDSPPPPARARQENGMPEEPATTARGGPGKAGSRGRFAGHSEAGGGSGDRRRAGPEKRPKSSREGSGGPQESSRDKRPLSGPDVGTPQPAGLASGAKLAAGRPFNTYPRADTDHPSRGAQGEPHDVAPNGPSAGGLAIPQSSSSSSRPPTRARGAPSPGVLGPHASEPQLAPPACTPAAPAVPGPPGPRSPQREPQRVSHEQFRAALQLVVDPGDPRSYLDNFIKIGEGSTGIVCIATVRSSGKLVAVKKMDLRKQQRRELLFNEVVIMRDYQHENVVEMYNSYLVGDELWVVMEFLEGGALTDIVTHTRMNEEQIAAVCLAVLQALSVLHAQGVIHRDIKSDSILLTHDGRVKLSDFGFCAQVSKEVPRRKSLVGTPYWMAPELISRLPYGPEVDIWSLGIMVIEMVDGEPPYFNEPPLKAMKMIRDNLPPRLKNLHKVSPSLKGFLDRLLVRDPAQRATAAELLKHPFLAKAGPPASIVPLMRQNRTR
# UniProt Q96KB5: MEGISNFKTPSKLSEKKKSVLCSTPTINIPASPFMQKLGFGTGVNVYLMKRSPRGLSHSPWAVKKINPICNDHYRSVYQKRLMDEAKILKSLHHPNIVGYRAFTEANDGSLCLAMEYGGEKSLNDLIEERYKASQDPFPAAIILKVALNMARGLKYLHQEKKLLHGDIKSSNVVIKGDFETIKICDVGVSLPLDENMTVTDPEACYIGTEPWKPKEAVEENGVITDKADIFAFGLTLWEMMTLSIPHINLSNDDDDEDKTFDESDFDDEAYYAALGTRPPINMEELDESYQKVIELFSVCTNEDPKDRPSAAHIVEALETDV
# UniProt P09619, whole entry: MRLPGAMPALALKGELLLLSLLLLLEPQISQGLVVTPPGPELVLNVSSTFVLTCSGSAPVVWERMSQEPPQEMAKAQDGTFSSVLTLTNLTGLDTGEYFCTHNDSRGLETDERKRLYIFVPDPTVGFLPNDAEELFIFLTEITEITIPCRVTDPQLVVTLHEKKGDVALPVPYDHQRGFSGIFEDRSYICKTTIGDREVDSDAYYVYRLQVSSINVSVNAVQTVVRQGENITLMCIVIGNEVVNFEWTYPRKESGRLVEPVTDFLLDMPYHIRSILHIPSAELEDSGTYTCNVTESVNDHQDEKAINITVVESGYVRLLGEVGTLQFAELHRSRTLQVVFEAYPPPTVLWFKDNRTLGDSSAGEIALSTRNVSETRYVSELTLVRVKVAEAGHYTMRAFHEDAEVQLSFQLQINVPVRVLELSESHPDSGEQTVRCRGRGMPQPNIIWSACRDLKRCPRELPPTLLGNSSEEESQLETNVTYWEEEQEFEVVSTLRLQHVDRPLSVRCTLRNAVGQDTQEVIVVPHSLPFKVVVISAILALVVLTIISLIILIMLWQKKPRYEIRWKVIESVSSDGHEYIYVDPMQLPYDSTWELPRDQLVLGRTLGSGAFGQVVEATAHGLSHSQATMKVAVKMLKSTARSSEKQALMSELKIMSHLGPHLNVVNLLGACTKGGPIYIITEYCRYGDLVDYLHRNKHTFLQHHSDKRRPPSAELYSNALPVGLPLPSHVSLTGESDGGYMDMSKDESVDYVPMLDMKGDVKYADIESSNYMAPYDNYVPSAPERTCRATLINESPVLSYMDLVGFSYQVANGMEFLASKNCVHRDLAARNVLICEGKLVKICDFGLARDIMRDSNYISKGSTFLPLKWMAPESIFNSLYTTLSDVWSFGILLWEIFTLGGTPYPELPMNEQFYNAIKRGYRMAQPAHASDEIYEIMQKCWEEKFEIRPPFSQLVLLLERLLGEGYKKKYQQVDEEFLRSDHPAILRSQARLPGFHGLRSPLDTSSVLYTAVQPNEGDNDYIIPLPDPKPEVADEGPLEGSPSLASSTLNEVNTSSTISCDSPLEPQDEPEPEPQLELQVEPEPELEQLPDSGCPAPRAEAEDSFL
# UniProt Q15118, whole entry, looked up: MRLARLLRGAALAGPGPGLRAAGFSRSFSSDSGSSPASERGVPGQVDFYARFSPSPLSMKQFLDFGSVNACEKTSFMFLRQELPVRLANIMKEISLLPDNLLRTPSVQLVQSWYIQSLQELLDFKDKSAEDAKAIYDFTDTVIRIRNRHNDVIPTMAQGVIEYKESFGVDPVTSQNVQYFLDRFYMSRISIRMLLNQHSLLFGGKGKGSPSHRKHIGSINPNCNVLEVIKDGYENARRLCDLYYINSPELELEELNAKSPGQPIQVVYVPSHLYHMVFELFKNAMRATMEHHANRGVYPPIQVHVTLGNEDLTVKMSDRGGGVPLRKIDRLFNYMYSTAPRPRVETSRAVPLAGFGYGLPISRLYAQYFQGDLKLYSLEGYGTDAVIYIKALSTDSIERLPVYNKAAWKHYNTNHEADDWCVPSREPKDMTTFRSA
# This is one part of the list. The calls rarely recur for the same compound in another form.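 In K562 cells expressing nanoluciferase-fused kinases, luminescence was recorded at 4 h intervals between 2 and 18 h, normalized as percent of control with DMSO at 100% and a positive control at 0%. A significant (2 sigma) signal drop marks a time point as decreased. The authors' rule for a hit is not shown and takes in more than the number of time points.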
# Experiments:
# Assay in all cases: kinase-Nluc reporter destabilization hit call (1 = scored as downregulated) (binary); higher = compound decreases kinase abundance
# Conditions in all cases: K562; 2-18 h
# IRAK3 = IRAK3 (UniProt Q9Y616)
# JAK1 = JAK1 (UniProt P23458)
# LCK = LCK (UniProt P06239)
# LIMK1 = LIMK1 (UniProt P53667)
# LIMK2 = LIMK2 (UniProt P53671)
# LMTK2 = LMTK2 (UniProt Q8IWU2)
# LYN = LYN (UniProt P07948)
# MAP2K1 = MAP2K1 (UniProt Q02750)
# MAP2K2 = MAP2K2 (UniProt P36507)
# MAP4K2 = MAP4K2 (UniProt Q12851)
# MAPK1 = MAPK1 (UniProt P28482)
# MAPK4 = MAPK4 (UniProt P31152)
# MAPKAPK2 = MAPKAPK2 (UniProt P49137)
# MKNK1 = MKNK1 (UniProt Q9BUB5)
# NTRK2 = NTRK2 (UniProt Q16620)
# NTRK3 = NTRK3 (UniProt Q16288)
# PAK4 = PAK4 (UniProt O96013)
# PBK = PBK (UniProt Q96KB5)
# PDGFRB = PDGFRB (UniProt P09619)
# PDK1 = PDK1 (UniProt Q15118)
SMILES,kinase-Nluc reporter destabilization hit call (IRAK3),kinase-Nluc reporter destabilization hit call (JAK1),kinase-Nluc reporter destabilization hit call (LCK),kinase-Nluc reporter destabilization hit call (LIMK1),kinase-Nluc reporter destabilization hit call (LIMK2),kinase-Nluc reporter destabilization hit call (LMTK2),kinase-Nluc reporter destabilization hit call (LYN),kinase-Nluc reporter destabilization hit call (MAP2K1),kinase-Nluc reporter destabilization hit call (MAP2K2),kinase-Nluc reporter destabilization hit call (MAP4K2),kinase-Nluc reporter destabilization hit call (MAPK1),kinase-Nluc reporter destabilization hit call (MAPK4),kinase-Nluc reporter destabilization hit call (MAPKAPK2),kinase-Nluc reporter destabilization hit call (MKNK1),kinase-Nluc reporter destabilization hit call (NTRK2),kinase-Nluc reporter destabilization hit call (NTRK3),kinase-Nluc reporter destabilization hit call (PAK4),kinase-Nluc reporter destabilization hit call (PBK),kinase-Nluc reporter destabilization hit call (PDGFRB),kinase-Nluc reporter destabilization hit call (PDK1)
O=C(Nc1ccc(CN2CCOCC2)cc1)c1ccc(-c2cccc(Cl)c2)o1 (10 µM),inactive: 0,inactive: 0,inactive: 0,inactive: 0,inactive: 0,inactive: 0,inactive: 0,inactive: 0,inactive: 0,inactive: 0,inactive: 0,inactive: 0,inactive: 0,inactive: 0,inactive: 0,inactive: 0,inactive: 0,inactive: 0,inactive: 0,inactive: 0
c1cc(-c2c[nH]c3nccc(N4CCC[C@@]5(CCCCN5)C4)c23)ncn1 (10 µM),inactive: 0,inactive: 0,inactive: 0,inactive: 0,inactive: 0,inactive: 0,inactive: 0,inactive: 0,inactive: 0,inactive: 0,inactive: 0,inactive: 0,inactive: 0,inactive: 0,inactive: 0,inactive: 0,inactive: 0,inactive: 0,inactive: 0,inactive: 0
Cc1nc2sccn2c(=O)c1CCN1CCC(=C(c2ccccc2)c2ccc(F)cc2)CC1 (10 µM),inactive: 0,inactive: 0,inactive: 0,inactive: 0,inactive: 0,inactive: 0,inactive: 0,inactive: 0,inactive: 0,inactive: 0,inactive: 0,inactive: 0,inactive: 0,inactive: 0,inactive: 0,inactive: 0,inactive: 0,inactive: 0,inactive: 0,inactive: 0
NC(=O)c1ccc(-c2nc(-c3ccc4c(c3)OCCO4)c(-c3ccccn3)[nH]2)cc1 (10 µM),inactive: 0,inactive: 0,inactive: 0,inactive: 0,inactive: 0,inactive: 0,inactive: 0,inactive: 0,inactive: 0,inactive: 0,inactive: 0,inactive: 0,inactive: 0,inactive: 0,inactive: 0,inactive: 0,inactive: 0,inactive: 0,inactive: 0,inactive: 0
CC(C)(C)c1cc(O)ccc1O (10 µM),inactive: 0,inactive: 0,inactive: 0,inactive: 0,inactive: 0,inactive: 0,inactive: 0,inactive: 0,inactive: 0,inactive: 0,inactive: 0,inactive: 0,inactive: 0,inactive: 0,inactive: 0,inactive: 0,inactive: 0,inactive: 0,inactive: 0,inactive: 0
Cc1ccc(C(=O)Nc2ccc(Oc3cc4cnn(C)c4cc3-c3cn[nH]c3)c(F)c2)c(=O)n1-c1ccc(F)cc1 [Merestinib] (2.5 µM),inactive: 0,inactive: 0,inactive: 0,active: 1,inactive: 0,inactive: 0,inactive: 0,inactive: 0,inactive: 0,inactive: 0,inactive: 0,inactive: 0,inactive: 0,inactive: 0,inactive: 0,inactive: 0,inactive: 0,inactive: 0,inactive: 0,inactive: 0
Oc1ccc(Nc2nc(-c3ccc(Cl)cc3)cs2)cc1 (10 µM),inactive: 0,inactive: 0,inactive: 0,inactive: 0,inactive: 0,inactive: 0,inactive: 0,inactive: 0,inactive: 0,inactive: 0,inactive: 0,inactive: 0,inactive: 0,inactive: 0,inactive: 0,inactive: 0,inactive: 0,inactive: 0,inactive: 0,inactive: 0
CC1=C(C(=O)O)N2C(=O)[C@@H](NC(=O)[C@H](N)C3=CCC=CC3)[C@H]2SC1 [Cephradine] (10 µM),inactive: 0,inactive: 0,inactive: 0,inactive: 0,inactive: 0,inactive: 0,inactive: 0,inactive: 0,inactive: 0,inactive: 0,inactive: 0,inactive: 0,inactive: 0,inactive: 0,inactive: 0,inactive: 0,inactive: 0,inactive: 0,inactive: 0,inactive: 0
CNc1nc(Nc2ccc(C(=O)N3CCOCC3)cc2OC)nc2[nH]cc(Cl)c12 (2.5 µM),inactive: 0,inactive: 0,inactive: 0,inactive: 0,inactive: 0,inactive: 0,inactive: 0,inactive: 0,inactive: 0,inactive: 0,inactive: 0,inactive: 0,inactive: 0,inactive: 0,inactive: 0,inactive: 0,inactive: 0,inactive: 0,inactive: 0,inactive: 0

# Part of the list above, reduced to kinase-Nluc reporter destabilization hit call (LYN) and kinase-Nluc reporter destabilization hit call (MAPK1):
SMILES | kinase-Nluc reporter destabilization hit call (LYN) | kinase-Nluc reporter destabilization hit call (MAPK1)
O=C(Nc1ccc(CN2CCOCC2)cc1)c1ccc(-c2cccc(Cl)c2)o1 (10 µM) | inactive: 0 | inactive: 0
c1cc(-c2c[nH]c3nccc(N4CCC[C@@]5(CCCCN5)C4)c23)ncn1 (10 µM) | inactive: 0 | inactive: 0
